Assay results as given in article PMC4130107.
Results are given in words; binding and its absence hold for the method and conditions named. In cells and extracts the contact can be indirect. Some entries that bind do so weakly or less than the wild type.

Target: T1, monocarboxylate transporter MCT2 (rat (endogenous in primary hippocampal neurons)) (UniProt Q63344)
T1 sequence: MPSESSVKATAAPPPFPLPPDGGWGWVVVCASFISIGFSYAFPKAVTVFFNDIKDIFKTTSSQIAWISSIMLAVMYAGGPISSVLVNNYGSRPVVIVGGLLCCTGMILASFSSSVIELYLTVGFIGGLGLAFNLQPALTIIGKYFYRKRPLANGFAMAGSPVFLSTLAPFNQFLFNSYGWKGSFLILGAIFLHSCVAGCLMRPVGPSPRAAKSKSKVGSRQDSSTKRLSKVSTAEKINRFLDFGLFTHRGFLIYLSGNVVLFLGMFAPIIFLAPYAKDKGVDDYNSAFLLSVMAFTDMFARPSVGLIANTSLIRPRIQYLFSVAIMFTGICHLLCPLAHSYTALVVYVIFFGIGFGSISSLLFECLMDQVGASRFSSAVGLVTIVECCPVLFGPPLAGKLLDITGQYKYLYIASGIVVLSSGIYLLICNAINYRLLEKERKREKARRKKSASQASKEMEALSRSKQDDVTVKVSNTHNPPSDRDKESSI
Assay: co-IP; MCT2 immunoprecipitated (anti-MCT2 1:50, overnight 4°C, protein A agarose) from homogenate of cultured rat hippocampal neurons in 20 mM Tris HCl, 137 mM NaCl, 10% glycerol, 1% n-octyl-b-D-glucoside, 2 mM EDTA, pH 7.4; Western blot for AQP9

B1: aquaglyceroporin AQP9 (protein, UniProt P56627 1-295)
chain: MPSEKDGAKKSLMQRLALKSRIAKETLSEFLGTFIMIVLGCSSIAQAVLSRERFGGIITINIGFASAVVMALYVTFGISGGHINPAVSFAMCAFGRMEWFKFPFYVGAQFLGAFVGAATVFGIYYDGLMAFAGGKLLVVGENATAFIFATYPAPFISTPGAFVDQVVSTMFLLLIVFAMFDSRNLGVPRGLEPVVIGLLIIVLSCSLGLNSGCAMNPARDLSPRLFTALAGWGFEVFTVGNNFWWIPVVGPMIGAFLGGLIYILFIQMHHSKLDPDMKAEPSENNLEKHELSVIM
- binding: binds
